Primary screen of a compound library

By UniProt entry, the sequences of proteins in these tests, tags left out. Residues count along the entry.
UniProt I6X8D2, whole entry: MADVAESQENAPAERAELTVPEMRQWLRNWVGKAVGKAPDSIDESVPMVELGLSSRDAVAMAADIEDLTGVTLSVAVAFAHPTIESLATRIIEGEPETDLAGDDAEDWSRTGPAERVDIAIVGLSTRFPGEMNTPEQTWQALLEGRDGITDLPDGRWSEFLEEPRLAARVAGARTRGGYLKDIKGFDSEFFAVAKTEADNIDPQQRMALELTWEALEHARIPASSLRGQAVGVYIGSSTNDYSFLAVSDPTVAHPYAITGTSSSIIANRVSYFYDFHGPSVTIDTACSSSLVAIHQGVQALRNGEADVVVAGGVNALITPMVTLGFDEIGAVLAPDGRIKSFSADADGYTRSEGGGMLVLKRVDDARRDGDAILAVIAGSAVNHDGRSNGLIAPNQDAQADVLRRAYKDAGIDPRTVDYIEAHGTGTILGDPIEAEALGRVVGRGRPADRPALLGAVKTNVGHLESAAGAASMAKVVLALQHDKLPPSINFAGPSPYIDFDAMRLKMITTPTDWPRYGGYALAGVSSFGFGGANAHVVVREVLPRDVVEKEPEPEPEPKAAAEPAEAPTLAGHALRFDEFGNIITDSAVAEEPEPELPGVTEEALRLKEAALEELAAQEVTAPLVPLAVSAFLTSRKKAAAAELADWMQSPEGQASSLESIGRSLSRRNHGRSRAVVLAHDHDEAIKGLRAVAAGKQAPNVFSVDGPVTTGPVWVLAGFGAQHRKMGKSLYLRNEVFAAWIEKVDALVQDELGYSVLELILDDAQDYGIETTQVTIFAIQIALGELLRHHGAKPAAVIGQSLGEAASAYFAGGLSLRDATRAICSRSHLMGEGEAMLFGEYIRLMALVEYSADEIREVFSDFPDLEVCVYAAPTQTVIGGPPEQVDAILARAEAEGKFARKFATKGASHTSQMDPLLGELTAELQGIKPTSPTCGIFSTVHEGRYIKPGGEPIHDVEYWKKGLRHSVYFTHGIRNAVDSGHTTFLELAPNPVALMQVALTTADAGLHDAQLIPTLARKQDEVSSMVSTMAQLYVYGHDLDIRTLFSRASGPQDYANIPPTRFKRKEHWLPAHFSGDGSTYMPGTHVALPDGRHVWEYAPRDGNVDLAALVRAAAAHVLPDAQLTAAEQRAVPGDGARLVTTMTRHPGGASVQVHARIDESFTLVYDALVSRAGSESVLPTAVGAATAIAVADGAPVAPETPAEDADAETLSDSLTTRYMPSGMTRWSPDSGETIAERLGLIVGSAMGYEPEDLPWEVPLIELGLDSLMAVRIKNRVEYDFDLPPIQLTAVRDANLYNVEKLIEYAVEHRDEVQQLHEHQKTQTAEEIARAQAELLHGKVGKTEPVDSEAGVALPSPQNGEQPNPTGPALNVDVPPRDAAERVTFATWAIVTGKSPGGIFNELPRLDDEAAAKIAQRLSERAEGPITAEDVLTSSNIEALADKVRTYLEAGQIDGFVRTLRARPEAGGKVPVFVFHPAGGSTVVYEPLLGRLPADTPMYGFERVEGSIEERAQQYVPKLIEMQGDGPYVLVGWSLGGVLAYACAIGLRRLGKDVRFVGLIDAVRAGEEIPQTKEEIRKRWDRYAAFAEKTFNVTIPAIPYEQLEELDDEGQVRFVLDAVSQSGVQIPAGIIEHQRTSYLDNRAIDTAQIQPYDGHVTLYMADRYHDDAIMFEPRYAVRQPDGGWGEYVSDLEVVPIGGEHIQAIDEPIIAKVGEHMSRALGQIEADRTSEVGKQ
UniProt Q8IDJ8, 1-583: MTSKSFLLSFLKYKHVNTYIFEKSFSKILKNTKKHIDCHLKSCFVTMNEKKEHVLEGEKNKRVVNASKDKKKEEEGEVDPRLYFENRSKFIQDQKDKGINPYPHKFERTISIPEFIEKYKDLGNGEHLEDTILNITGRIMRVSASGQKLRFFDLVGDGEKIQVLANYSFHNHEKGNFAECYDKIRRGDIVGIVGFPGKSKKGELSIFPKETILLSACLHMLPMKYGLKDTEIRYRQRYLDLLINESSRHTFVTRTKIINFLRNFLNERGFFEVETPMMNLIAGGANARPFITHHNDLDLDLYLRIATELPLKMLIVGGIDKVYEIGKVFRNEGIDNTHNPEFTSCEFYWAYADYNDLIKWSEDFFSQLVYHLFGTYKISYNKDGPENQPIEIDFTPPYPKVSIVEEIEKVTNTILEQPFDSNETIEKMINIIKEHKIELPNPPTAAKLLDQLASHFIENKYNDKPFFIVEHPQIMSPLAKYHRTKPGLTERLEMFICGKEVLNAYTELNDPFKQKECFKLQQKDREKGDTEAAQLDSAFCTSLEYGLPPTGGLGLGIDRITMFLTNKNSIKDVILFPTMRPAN
UniProt P9WNZ1, whole entry: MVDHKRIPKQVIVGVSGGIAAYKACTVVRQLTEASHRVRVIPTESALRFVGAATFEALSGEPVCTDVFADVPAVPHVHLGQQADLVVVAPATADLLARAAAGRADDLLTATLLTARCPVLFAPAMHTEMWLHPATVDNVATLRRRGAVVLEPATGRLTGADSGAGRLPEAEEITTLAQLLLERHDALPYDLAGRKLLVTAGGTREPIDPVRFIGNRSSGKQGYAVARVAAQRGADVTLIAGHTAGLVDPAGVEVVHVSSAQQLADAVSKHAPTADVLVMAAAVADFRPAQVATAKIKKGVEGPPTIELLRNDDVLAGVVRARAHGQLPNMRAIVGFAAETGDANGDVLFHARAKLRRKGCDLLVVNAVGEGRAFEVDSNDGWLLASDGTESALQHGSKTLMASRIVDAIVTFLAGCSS

Source: ChEMBL document CHEMBL3988442, “University of Dundee, Small-Polar-MMV Screening Library” (2021).

Pks13 thioesterase: 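Enzyme assay of the thioesterase domain of polyketide synthase 13; the read-out is not stated. Target: Polyketide synthase Pks13, Mycobacterium tuberculosis (UniProt I6X8D2). Concentration: 30 µM. The record gives no direction; the compounds picked for IC50 retests had high values, so higher reads as stronger inhibition. About 67,000 compounds were tested under these conditions; 0.46% (about 300) showed 50% or more at least once.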
PfKRS1: 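Lysine-tRNA ligase, Plasmodium falciparum 3D7 (UniProt Q8IDJ8). Enzyme assay of the cytosolic lysyl-tRNA synthetase in 384-well plates, read by luminescence. Tested at 30 µM. Higher reads as stronger inhibition, judged from the few compounds that gave an IC50. About 69,000 compounds were tested under these conditions; 0.071% (about 49) showed 50% or more at least once.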
CoaBC: 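Enzyme assay of CoaBC with a phosphate dye (Biomol Green) read at 650 nm. Target: Coenzyme A biosynthesis protein CoaBC, Mycobacterium tuberculosis (UniProt P9WNZ1). Tested at 30 µM. Higher reads as stronger inhibition, judged from the few compounds that gave an IC50. Most strong results did not repeat in a second test. About 67,000 compounds were tested under these conditions; 0.06% (about 40) showed 50% or more at least once.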

Each number is a percent effect as filed.
The record does not define 0% and 100%; most values in the screen are far below 50% and negative numbers occur (in some assays of this library far below -100).
The compounds are a random part of those screened.

* Nc1nc(CC(=O)N2CCCC(CCc3cccc(F)c3)C2)cc(=O)[nH]1 (stereo unspecified) | Pks13 thioesterase: 10.02%; PfKRS1: 17.76%; CoaBC: 9.685%
* Cc1ccc(C(=O)Nc2ccc3c(c2)N(C)CCN(C)C3)c(=O)[nH]1 | Pks13 thioesterase: 12.14%; PfKRS1: -0.2347%; CoaBC: -13.8%
* Cc1nc(CN(C)C(=O)CNC(=O)c2ccc(C#N)cc2)cs1 | Pks13 thioesterase: -14.41%; PfKRS1: 5.283%; CoaBC: 3.045%
* CN(C)C(=O)CSc1nnc(CCNC(=O)OC(C)(C)C)o1 | Pks13 thioesterase: -22.05%; PfKRS1: -0.5248%; CoaBC: 1.48%
* COc1ccc(C)cc1-c1[nH]c2ccccc2c1C(=O)O | Pks13 thioesterase: -0.6044%; PfKRS1: -0.02334%; CoaBC: 1.316%
* O=C(CC1CCN(c2ncnc3cccc(F)c23)CC1)N1CCCC1 | Pks13 thioesterase: -23.08%; PfKRS1: 2.995%; CoaBC: 10.21%
* Fc1ccc(CN2CCC3(CCN(Cc4nccs4)CC3)C2)cc1 | Pks13 thioesterase: 1.993%; PfKRS1: 6.069%; CoaBC: 1.844%
* Cc1oc(C(C)C)cc1C(=O)N1C[C@H]2CC[C@@H]1CN(S(=O)(=O)N(C)C)C2 | Pks13 thioesterase: -22.17%; PfKRS1: -1.771%; CoaBC: 7.944%
* CCN1CC(C(=O)N2CC(Oc3ccccc3Cl)C2)CC1=O (stereo unspecified) | Pks13 thioesterase: 2.704%; PfKRS1: 6.382%; CoaBC: -2.788%
* CCc1nn(C)c(Cl)c1CN1C[C@@H](NC(=O)N(C)C)[C@H](C(C)C)C1 | Pks13 thioesterase: -25.36%; PfKRS1: 7.08%; CoaBC: 9.859%
* CCOC(=O)N1CCN(C(=O)C(C)n2ccnc2C(C)C)CC1 (stereo unspecified) | Pks13 thioesterase: -2.998%; PfKRS1: 0.2323%; CoaBC: -1.829%
* CN(CC1=CCCN(CCc2ccccn2)C1)C(=O)c1ccco1 | Pks13 thioesterase: 1.185%; PfKRS1: 4.797%; CoaBC: 1.471%
* CC(=O)c1cc(C(=O)N2CCC3(CC2)Nc2ccccc2NC3=O)cs1 | Pks13 thioesterase: -5.003%; PfKRS1: 1.973%; CoaBC: -0.1206%
* CCOCCCNC(=O)N(C)Cc1ccc(SC)c(OC)c1 | Pks13 thioesterase: -15.3%; PfKRS1: 1.237%; CoaBC: 7.056%
* O=C(NCc1ccco1)C1CCCN1Cc1nc(-c2ccco2)no1 (stereo unspecified) | PfKRS1: 6.527%; CoaBC: 6.745%
* O=C(C1CCOC1)N1C[C@H]2CN(Cc3cccc(F)c3)C(=O)[C@H]2C1 (stereo partly specified) | Pks13 thioesterase: -7.325%; PfKRS1: 2.841%; CoaBC: 0.8663%
* Cc1nc(CNCc2cccnc2Oc2ccc(C)c(F)c2F)c[nH]1 | Pks13 thioesterase: -43.21%; PfKRS1: 0.6874%; CoaBC: -26.81%
* CC(C)S(=O)(=O)CC(=O)NCC(Cc1ccc(F)cc1)C(N)=O (stereo unspecified) | Pks13 thioesterase: -1.253%; PfKRS1: 0.7559%; CoaBC: 2.286%
* O=C(O)Cc1cccc(-n2ccnc2-c2ccc(F)c(Cl)c2)c1 | Pks13 thioesterase: -13.41%; PfKRS1: 5.759%; CoaBC: 1.737%
* Cn1cc(-c2nnn3c2COC(CNCC2CCOCC2)C3)cn1 (stereo unspecified) | Pks13 thioesterase: 5.764%; PfKRS1: 9.408%; CoaBC: 4.034%
* COC(=O)COc1cc(NCc2c(C)noc2C)c(Cl)cc1C | Pks13 thioesterase: -14.89%; PfKRS1: 1.538%; CoaBC: 6.696%
* c1ncn(Cc2cn3c(n2)CN(CC2CCCC2)CC3)n1 | Pks13 thioesterase: -0.6663%; PfKRS1: 6.395%; CoaBC: -11.21%
* NCc1ccc(OC(F)F)cc1OC(F)F | Pks13 thioesterase: -10.44%; PfKRS1: 2.874%; CoaBC: -2.8%
* CNS(=O)(=O)Cc1ccc(CNc2ccc(C#N)cn2)cc1 | Pks13 thioesterase: -86.45%; PfKRS1: 0.7917%; CoaBC: 2.733%
* CCN1CC(C(=O)NC(C)(C)C(=O)OC)CC1=O (stereo unspecified) | Pks13 thioesterase: -2.593%; PfKRS1: 2.26%; CoaBC: 10.5%
* COc1ccccc1CNC(=O)C(C)N1CC(n2nc(C)cc2C)C1 (stereo unspecified) | Pks13 thioesterase: 3.794%; PfKRS1: -2.198%; CoaBC: -0.86%
* CN(CCCC#N)C1CCCN(Cc2noc(C3CC3)n2)C1 (stereo unspecified) | Pks13 thioesterase: -19.96%; PfKRS1: -4.632%; CoaBC: 4.219%
* COC(=O)c1ccoc1CN(C)CC(=O)N(C)C | Pks13 thioesterase: -11.66%; PfKRS1: 5.288%; CoaBC: 0.6588%
* CC(=O)N(C)[C@H]1CC[C@]2(CC1)CNC(=O)c1cc(C)ccc1O2 | Pks13 thioesterase: -3.711%; PfKRS1: 0.2662%; CoaBC: -0.1239%
* CN(Cc1cccnc1)C1CC2(CCN(Cc3cccnc3)CC2)C1 | Pks13 thioesterase: -11.64%; PfKRS1: 5.665%; CoaBC: 4.25%
* CCCS(=O)(=O)N1CCCC(c2cccc(C(=O)O)c2)C1 (stereo unspecified) | Pks13 thioesterase: -1.453%; PfKRS1: 5.172%; CoaBC: 3.433%
* COc1ccccc1OCc1nc2cc3c(cc2c(=O)o1)OCCCO3 | Pks13 thioesterase: -6.381%; PfKRS1: 4.85%; CoaBC: -1.84%

The last 4 entries again:

| structure | Pks13 thioesterase | PfKRS1 | CoaBC |
|---|---|---|---|
| `CC(=O)N(C)[C@H]1CC[C@]2(CC1)CNC(=O)c1cc(C)ccc1O2` | -3.711 | 0.2662 | -0.1239 |
| `CN(Cc1cccnc1)C1CC2(CCN(Cc3cccnc3)CC2)C1` | -11.64 | 5.665 | 4.25 |
| `CCCS(=O)(=O)N1CCCC(c2cccc(C(=O)O)c2)C1` (stereo unspecified) | -1.453 | 5.172 | 3.433 |
| `COc1ccccc1OCc1nc2cc3c(cc2c(=O)o1)OCCCO3` | -6.381 | 4.85 | -1.84 |